Data on one compound can be found in PMC11723331 (Plants, 2024).

Sequences of proteins named here, by UniProt entry; tags and fusion partners are left off.
UniProt Q39588, entry or part of it: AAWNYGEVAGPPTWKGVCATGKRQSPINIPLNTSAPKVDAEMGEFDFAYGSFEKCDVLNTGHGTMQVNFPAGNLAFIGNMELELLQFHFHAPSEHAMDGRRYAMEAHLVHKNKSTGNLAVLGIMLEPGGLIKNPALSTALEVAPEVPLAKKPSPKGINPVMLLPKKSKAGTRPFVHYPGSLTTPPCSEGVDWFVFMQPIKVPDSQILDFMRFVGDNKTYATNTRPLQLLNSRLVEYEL

For this test, the target named is T1, rCAH3 (Chlamydomonas reinhardtii, UniProt Q39588).
T1 construct: gene CAH3
Description: biochemical.

In general, IC50 refers to the concentration that inhibits the measured activity by half. Higher therefore signals a need for much substance. For `CC(=O)Nc1nnc(S(N)(=O)=O)s1` [AZA, acetazolamide], the midpoint of inhibition, the IC50, lay at 6.6 nM.
